This is one part of the list.
molecular target: OsWRKY34 (Oryza sativa, UniProt Q0JBA9 1-250); test: protein-binding microarray (RPBM); PBS, 2% BSA, 51.3 ng/ul salmon testes DNA, 50 uM zinc acetate, 200 nM TF, 25 C, 1 h; high values mean tight binding; conditions: protein: recombinant; tags: N-terminal polyhistidine and DsRed monomer fusion (pET32a); label: CyDye5-dUTP incorporated in the synthesized complementary strand; 3' TTTTT single-stranded linker to array surface; dsDNA, one strand shown
Procedure, shortened: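 The binding signal is fluorescence intensity per feature, in arbitrary units, read on an Axon 4000B scanner. Polyhistidine- and DsRed-tagged transcription factors (N-terminal fusions) from E. coli BL21-CodonPlus were purified on Ni–NTA and applied at 200 nM for 1 h at 25 °C to a double-stranded, BSA-blocked custom Agilent array in buffer with 50 µM zinc acetate.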

Chains of the proteins cited; added tags and fusions are not shown.
UniProt Q0JBA9, entry or part of it: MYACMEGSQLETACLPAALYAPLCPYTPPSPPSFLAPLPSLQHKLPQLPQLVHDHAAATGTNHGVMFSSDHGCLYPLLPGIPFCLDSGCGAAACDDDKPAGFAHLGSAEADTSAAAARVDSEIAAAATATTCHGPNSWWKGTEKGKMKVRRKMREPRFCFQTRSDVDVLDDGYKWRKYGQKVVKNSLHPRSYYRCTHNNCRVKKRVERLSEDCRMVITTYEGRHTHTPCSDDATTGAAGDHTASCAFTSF

| Sequence | binding signal |
| --- | --- |
| TTAGGGGCGGTGGGTGGTTTTCGGCTGGGAAATCGCGGATCGGAGTCACCTAGTGCAG | 11500 fluorescence intensity (a.u.) |
| CCCACCCAGCCTACCACCTAACCACAACGATCCAACCATACGGAGTCACCTAGTGCAG | 8760 fluorescence intensity (a.u.) |
| CTTCTTTTTTTTTTCACCTTTTACATATCTGTCTTCGTCACGGAGTCACCTAGTGCAG | 11400 fluorescence intensity (a.u.) |
| TGTTGTTATAGCTAATTATTATTCATGCCACTTATTTTTTCGGAGTCACCTAGTGCAG | 9950 fluorescence intensity (a.u.) |
| AAACCAACTTGCCATGCAACCTCTACGTATGTACACGCGTCGGAGTCACCTAGTGCAG | 11400 fluorescence intensity (a.u.) |
| GTTTCTTTTCATACTTTGCTGCATCAATTGGTTTTGGCCTCGGAGTCACCTAGTGCAG | 8300 fluorescence intensity (a.u.) |
| ATCCCTCTGGTCGTCTCCTACCTCTCGGTTTCTTCACCCTCGGAGTCACCTAGTGCAG | 14600 fluorescence intensity (a.u.) |
| CCCCATCCGTCGCCGTGCTGCACTCCTCTGGCAGAAGAGCCGGAGTCACCTAGTGCAG | 8050 fluorescence intensity (a.u.) |
| CCCCGCCGATCCTCGCCTGTCGACGACGTCCCGGCGCCGCCGGAGTCACCTAGTGCAG | 10300 fluorescence intensity (a.u.) |
| TCACTTTACTCTCTCTCTCTCTCTCTCTCTCTCTCTCTCTCGGAGTCACCTAGTGCAG | 14400 fluorescence intensity (a.u.) |
| CCTTTTCAGCTTGTCTGTTTATTTGGCTCTTCTGTTTTTTCGGAGTCACCTAGTGCAG | 9630 fluorescence intensity (a.u.) |
| AGTACTACCGCTCCTCGTATCAGGTTATAAAACGTTTTGACGGAGTCACCTAGTGCAG | 8490 fluorescence intensity (a.u.) |
| GGTGGAGTGGCGTGGCGAGGTGAGGAGGTGGCTGATCTCTCGGAGTCACCTAGTGCAG | 8440 fluorescence intensity (a.u.) |
| TTGACGCCGTTGACTTTTCTAAACATATTTGACTATTCGTCGGAGTCACCTAGTGCAG | 22300 fluorescence intensity (a.u.) |
| CCCCGCCTTTCTCGAGCTGCGGGTTGGGTTTGGCCACCCACGGAGTCACCTAGTGCAG | 8660 fluorescence intensity (a.u.) |
| TCGTCTCTCATCTCTTCTATATGTGATTATAGCTGATTTACGGAGTCACCTAGTGCAG | 8980 fluorescence intensity (a.u.) |
| TGTATTTCGCCGGTTGCAATTTCGTCATCACTGCGGTTAGCGGAGTCACCTAGTGCAG | 11000 fluorescence intensity (a.u.) |
| CTGGGTGGCTCATATTATTCTCAACGGGCTGTCGCTTTAACGGAGTCACCTAGTGCAG | 8190 fluorescence intensity (a.u.) |
| CGTGTCCGAAAACCCCTTCCGACATCCGGTCAAACGTTCGCGGAGTCACCTAGTGCAG | 8790 fluorescence intensity (a.u.) |
| CATTGATTTACTATTTCTTAACAAATCCCGGCCCATTTCTCGGAGTCACCTAGTGCAG | 8680 fluorescence intensity (a.u.) |
| CCCCATCACCTCCCTCACCGCGGCCTCCACCTCGCGCCGCCGGAGTCACCTAGTGCAG | 8370 fluorescence intensity (a.u.) |
| TATGTACGCCTCAAACCGACATAAAGCATCCGTGTTGACCCGGAGTCACCTAGTGCAG | 8340 fluorescence intensity (a.u.) |
| CCGCATATATTCCCGTCGCCACCACGGCGCAACTGCGCGACGGAGTCACCTAGTGCAG | 9100 fluorescence intensity (a.u.) |
| GCCATTCCAGTCATTGGCATTGTTGTTTCCTGTCCACTGACGGAGTCACCTAGTGCAG | 10500 fluorescence intensity (a.u.) |
| CGCTCGCACGGCCTCACCCGACCACCGCCACCGCACAAATCGGAGTCACCTAGTGCAG | 13600 fluorescence intensity (a.u.) |
| CTTCATCACCGTCGCCTCACAACTACTACACCGACGCATCCGGAGTCACCTAGTGCAG | 9250 fluorescence intensity (a.u.) |
| GGCCGCGTGCGTGTGTCCAAACCTTCTCCACGCATTTCCTCGGAGTCACCTAGTGCAG | 9290 fluorescence intensity (a.u.) |

| Sequence | binding signal |
| --- | --- |
| GCTGCTCCTAACCCCTTACACAGCACACTAATCATTTGCTCGGAGTCACCTAGTGCAG | 9060 fluorescence intensity (a.u.) |
| ATGCCGCGGTTTCTTCTCTTGGGCGTGTATTGTTGCACGACGGAGTCACCTAGTGCAG | 8710 fluorescence intensity (a.u.) |
| CAGTCCTAGTATATGCTGTTTGCGCAACTTGCCAACTTCTCGGAGTCACCTAGTGCAG | 9380 fluorescence intensity (a.u.) |
| TTCTTCATTTCTCCTCCTGTCTCTTTCATCCGCTTCCTTCCGGAGTCACCTAGTGCAG | 8440 fluorescence intensity (a.u.) |
| AGTTACCATCTGCTGATGACATCCAAAAACTGCCATCATTCGGAGTCACCTAGTGCAG | 9440 fluorescence intensity (a.u.) |
| AGTTTTTTCCTTTTAATCTCCGACTTCACCGGGTTTTTTCCGGAGTCACCTAGTGCAG | 8260 fluorescence intensity (a.u.) |
| TTATCTATTAGTCCATTGTACATGCCCTCGTCTCTCTATCCGGAGTCACCTAGTGCAG | 11200 fluorescence intensity (a.u.) |
| ATAATATGTGTCTTGGAGTCCGTGCTATAGCTGGCTACAACGGAGTCACCTAGTGCAG | 8810 fluorescence intensity (a.u.) |
| ATCTTGTTACATGATTGTTAGTCCTCATATTTTGTTTTTGCGGAGTCACCTAGTGCAG | 8110 fluorescence intensity (a.u.) |
| AACGGTAACATCTTAATCCAACGGCTACTCTTCTGCGTGTCGGAGTCACCTAGTGCAG | 10100 fluorescence intensity (a.u.) |
| ACTTACCCTTTACTTTCACCCTTGGCTGTCATTCAGGTACCGGAGTCACCTAGTGCAG | 9400 fluorescence intensity (a.u.) |
| GGGCAAGTTCGCGTCAAAATCGGCCCGTTGTTTTCTTTTTCGGAGTCACCTAGTGCAG | 9550 fluorescence intensity (a.u.) |
| TTGTGCCTCGCTTGCTCATCTTTTTTTGGGGATTTATCTTCGGAGTCACCTAGTGCAG | 8670 fluorescence intensity (a.u.) |
| CACCTGAAGCCGGCCATTCCTTCCGCGTTTCCGTCGACGTCGGAGTCACCTAGTGCAG | 9180 fluorescence intensity (a.u.) |
| TCTATTGCGTTCCGTTCCGTGAGCTATTTCCCCAAATCAACGGAGTCACCTAGTGCAG | 8740 fluorescence intensity (a.u.) |
| GCTGCCTCGTCCATCTGTCGTCCAACGCGCCTCTTCACTTCGGAGTCACCTAGTGCAG | 11500 fluorescence intensity (a.u.) |
| CTATTTTATAAAATCTTTGTTTATGCATACCAGCTAAATTCGGAGTCACCTAGTGCAG | 8800 fluorescence intensity (a.u.) |
| ACAGCCTTATCTCTTTCTCCTGTCTCTTATCTCTTTCTTCCGGAGTCACCTAGTGCAG | 12600 fluorescence intensity (a.u.) |
| AAAATTTTTTTAACGTATACGGATGCACATTTGAAGTATTCGGAGTCACCTAGTGCAG | 8420 fluorescence intensity (a.u.) |
| AGTTTGTGTTGTAGCTGTAGCCAGTTGCTCTTCTCTCTTCCGGAGTCACCTAGTGCAG | 12000 fluorescence intensity (a.u.) |
| CACTGTATATTTTTCTATCGCAGTCATGTGATATACCCTTCGGAGTCACCTAGTGCAG | 10400 fluorescence intensity (a.u.) |
| GACTTTTGCTTAACTTCTACGATTTACCATCGCTGTCCGGCGGAGTCACCTAGTGCAG | 8190 fluorescence intensity (a.u.) |
| TGTTGGCTGTAACATAGAAAATTTTTCAGCATGTTGCTTTCGGAGTCACCTAGTGCAG | 8580 fluorescence intensity (a.u.) |
| TTTTGTGCATTTTCGAAATCATTTTCTCTCCTCCACCGGACGGAGTCACCTAGTGCAG | 9380 fluorescence intensity (a.u.) |
| CCGTATTTCCTTTGCATATATGCCGTGTTTGGTGTTGGATCGGAGTCACCTAGTGCAG | 15500 fluorescence intensity (a.u.) |
| GGTGGCTCATCTTCTAGCCATGGTGGTGTAGTAGTTCGTCCGGAGTCACCTAGTGCAG | 9990 fluorescence intensity (a.u.) |
| ACCGTCTCCTGGCTCCTGCCCCACCTATGCCCCTCATTTCCGGAGTCACCTAGTGCAG | 9180 fluorescence intensity (a.u.) |

3 entries from above, with bars between the fields:
Sequence | binding signal
AGTTTTTTCCTTTTAATCTCCGACTTCACCGGGTTTTTTCCGGAGTCACCTAGTGCAG | 8260 fluorescence intensity (a.u.)
GGGCAAGTTCGCGTCAAAATCGGCCCGTTGTTTTCTTTTTCGGAGTCACCTAGTGCAG | 9550 fluorescence intensity (a.u.)
CACTGTATATTTTTCTATCGCAGTCATGTGATATACCCTTCGGAGTCACCTAGTGCAG | 10400 fluorescence intensity (a.u.)

Source: PMC7819943, “Rice protein-binding microarrays: a tool to detect cis-acting elements near promoter regions in rice”
